Test results reported in paper PMC8825676.
Results are given in words; binding and its absence hold for the method and conditions named. Binding seen in cells or lysates may run through a third protein. Some results given as binding are weak or reduced against the parent protein; the word gives no strength.

Amino acid sequences for entries named in this document (tags omitted). Residues count along the entry.
UniProt Q99KR7, residues 30-206: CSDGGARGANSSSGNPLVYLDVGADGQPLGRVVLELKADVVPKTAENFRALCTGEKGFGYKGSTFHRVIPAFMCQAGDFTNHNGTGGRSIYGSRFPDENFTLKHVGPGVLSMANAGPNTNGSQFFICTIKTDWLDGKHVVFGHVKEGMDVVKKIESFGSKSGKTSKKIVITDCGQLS
UniProt P02340: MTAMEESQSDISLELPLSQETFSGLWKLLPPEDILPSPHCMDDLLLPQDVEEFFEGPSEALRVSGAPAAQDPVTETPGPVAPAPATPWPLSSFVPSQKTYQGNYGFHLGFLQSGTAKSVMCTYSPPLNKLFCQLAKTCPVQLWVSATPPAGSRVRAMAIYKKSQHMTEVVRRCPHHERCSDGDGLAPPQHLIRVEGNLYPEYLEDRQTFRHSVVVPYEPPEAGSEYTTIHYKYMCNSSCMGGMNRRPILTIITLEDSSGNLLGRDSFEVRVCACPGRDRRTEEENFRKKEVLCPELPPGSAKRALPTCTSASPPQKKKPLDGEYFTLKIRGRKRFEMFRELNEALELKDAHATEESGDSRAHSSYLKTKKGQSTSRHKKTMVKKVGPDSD

Target: Cyclophilin-D (mouse (endogenous in primary murine chondrocytes)) (UniProt Q99KR7)
Assay: co-IP; Mito-IP: mitochondria isolated from primary murine chondrocytes (H2O2 300 uM 4 h, with or without luteolin 20 uM pretreatment), lysed in 20 mM Tris pH 7.4, 135 mM NaCl, 1.5 mM MgCl2, 1 mM EGTA, 10% glycerol, 1% Triton X-100; 400 ug lysate, anti-Cyp-D antibodies, protein G Sepharose, western …

p53 (from UniProt P02340 1-390) was tested, and the binding was “binds”.

B1: adenine nucleotide translocator-1 (protein, UniProt P48962 1-298)
chain: MGDQALSFLKDFLAGGIAAAVSKTAVAPIERVKLLLQVQHASKQISAEKQYKGIIDCVVRIPKEQGFLSFWRGNLANVIRYFPTQALNFAFKDKYKQIFLGGVDRHKQFWRYFAGNLASGGAAGATSLCFVYPLDFARTRLAADVGKGSSQREFNGLGDCLTKIFKSDGLKGLYQGFSVSVQGIIIYRAAYFGVYDTAKGMLPDPKNVHIIVSWMIAQSVTAVAGLVSYPFDTVRRRMMMQSGRKGADIMYTGTLDCWRKIAKDEGANAFFKGAWSNVLRGMGGAFVLVLYDEIKKYV
In the case of B1, the binding is reported as “binds”.
